Measurements published in ChEMBL document CHEMBL1151088 (1996).
Converted amounts (≈) assume the structure as drawn.

System: Escherichia coli
Test: In vitro antimicrobial activity against Escherichia coli 182+PMBN.
Type: functional

CN[C@H](CC(C)C)C(=O)N[C@H]1C(=O)N[C@@H](CC(N)=O)C(=O)N[C@H]2C(=O)N[C@H]3C(=O)N[C@H](C(=O)N[C@H](C(=O)O)c4cc(O)cc(O)c4-c4cc3ccc4O)[C@H](O)c3ccc(c(Cl)c3)Oc3cc2cc(c3O[C@@H]2O[C@H](CO)[C@@H](O)[C@H](O)[C@H]2O[C@H]2C[C@](C)(N)[C@H](O)[C@H](C)O2)Oc2ccc(cc2Cl)[C@H]1O [VANCOMYCIN]
MIC: 0.12 µg/mL (≈ 0.0828 µM)
